Some results were stated once for a whole list of compounds, not compound by compound.
target: T1, NAD(P)H dehydrogenase quinone 1 (DT-diaphorase; NQO1) (Homo sapiens, UniProt P15559); experiment: Detecting human aerobic nitroreductase activity in MDA231 DTD cells; type: cell-based; conditions: 100 μM, 4 hr
T1 construct: expressed in transfected cells; host or cells: MDA231 human breast cancer cell line, clonal derivative MDA231 DTD
Protocol: The human breast cancer cell line (MDA231^WT) and a clonal derivative (MDA231^DTD) engineered to express the human aerobic reductase, NAD(P)H dehydrogenase quinone 1 (DT-diaphorase; NQO1) under the control of a constitutive promoter were seeded into 96-well plates at a density of 1×10^5 cells/well. When samples were equilibrated to 37° C., 5% CO2 for 2 hr and compounds 1 to 15 were added to a final concentration of 100 μM for 4 hr. Test groups were cell-free culture media alone (control), MDA231^WT and MDA231^DTD. The fluorescence signal was monitored at 355/460 except for compounds 4 and 11 that were monitored at 405/585 and compounds 8 and 10 that were monitored at 355/585 and 355/535 respectively (FIG. 5).
In a further exemplification, the human breast cancer cell line (MDA231^WT) and a clonal derivative (MDA231^DTD) engineered to express the human NQO1 gene (DT-diaphorase) under the control of a constitutive promoter were seeded into 96-well tissue culture plates at 1×10^5 cells/well. Samples were equilibrated to 37° C., 5% CO2, compound (1) (6-nitro-4(1H)-quinolinone) was added to a final concentration of 300 μM. Test groups were culture media alone (control), MDA231^WT cells and MDA231^DTD cells. The rate of fluorescence signal generation at 355/460 was monitored as a function of time (FIG. 6).

Amino acid sequences for entries named in this document (tags omitted).
UniProt P15559, whole entry: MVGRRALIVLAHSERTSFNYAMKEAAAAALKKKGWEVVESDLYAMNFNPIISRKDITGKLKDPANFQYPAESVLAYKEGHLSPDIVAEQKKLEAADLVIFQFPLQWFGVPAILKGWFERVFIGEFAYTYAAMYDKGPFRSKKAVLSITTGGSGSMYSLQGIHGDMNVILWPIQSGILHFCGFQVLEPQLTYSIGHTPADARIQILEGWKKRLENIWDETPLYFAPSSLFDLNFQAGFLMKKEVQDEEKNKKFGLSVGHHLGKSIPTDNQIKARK

SMILES	fluorescence in control or parental MDA231 WT cultures
COC(=O)CCCNS(=O)(=O)c1cccc2c([N+](=O)[O-])cccc12 [Compound 8, methyl 4-{[(5-nitro-1-naphthyl)sulfonyl]amino}butanoate]	No detectable fluorescence
CN(C)CCCCN1C(=O)c2cccc3cc([N+](=O)[O-])cc(c23)C1=O [Compound 11, 2-[4-(Dimethylamino)butyl]-5-nitro-1H-benzo[de]isoquinoline-1,3(2H)-dione]	No detectable fluorescence
COC(=O)CCCNS(=O)(=O)c1ccc2c([N+](=O)[O-])cccc2c1 [Compound 9, methyl 4-{[(5-nitro-2-naphthyl)sulfonyl]amino}butanoate]	No detectable fluorescence
Cc1cc(=O)c2cc([N+](=O)[O-])ccc2[nH]1 [Compound 3, 2-Methyl-6-nitro-4(1H)-quinolinone]	No detectable fluorescence
O=c1oc2cc([N+](=O)[O-])ccc2c2ccccc12 [Compound 12, 3-Nitro-6H-benzo[c]chromen-6-one]	No detectable fluorescence
CN(C)CCCNc1ccnc2cc([N+](=O)[O-])ccc12 [Compound 15, N^1,N^1-Dimethyl-N^3-(7-nitro-4-quinolinyl)-1,3-propanediamine]	No detectable fluorescence
Cn1ccc(=O)c2cc([N+](=O)[O-])ccc21 [Compound 2, 1-Methyl-6-nitro-4(1H)-quinolinone]	No detectable fluorescence

test system: not listed separately; experiment: Aerobic/anaerobic stability in cell-free culture media (fluorescence); type: physicochemical; conditions: 100 μM, 37° C., 4 hr, air or 95% N2
Protocol: Compounds 1-15 or methyl 7-nitrocoumarin carboxylate (methyl 7-nitro-2-oxo-2H-chromene-3-carboxylate) or 7-nitrocoumarin-3-carboylic acid or 6-chloro-9-nitro-5H-benzo[a]phenoxazin-5-one were added to a final concentration of 100 μM in cell-free culture media and were held at 37° C., 5% CO2 for 4 hr under either air or 95% N2. The fluorescence signal was monitored at 355/460 except for compounds 4 and 11 that were monitored at 405/585 and compounds 8, 10 and 6-Cl-9-nitro-5-oxo-5H-benzo[a]phenoxazine that were monitored at 355/585, 355/535 and 530/585 respectively (FIG. 12).

SMILES	fluorescence in cell-free culture media (instability)
COC(=O)CCCNS(=O)(=O)c1cccc2c([N+](=O)[O-])cccc12 [Compound 8, methyl 4-{[(5-nitro-1-naphthyl)sulfonyl]amino}butanoate]	no detectable fluorescence
CN(C)CCCCN1C(=O)c2cccc3cc([N+](=O)[O-])cc(c23)C1=O [Compound 11, 2-[4-(Dimethylamino)butyl]-5-nitro-1H-benzo[de]isoquinoline-1,3(2H)-dione]	no detectable fluorescence
COC(=O)CCCNS(=O)(=O)c1ccc2c([N+](=O)[O-])cccc2c1 [Compound 9, methyl 4-{[(5-nitro-2-naphthyl)sulfonyl]amino}butanoate]	no detectable fluorescence
Cc1cc(=O)c2cc([N+](=O)[O-])ccc2[nH]1 [Compound 3, 2-Methyl-6-nitro-4(1H)-quinolinone]	no detectable fluorescence
O=c1oc2cc([N+](=O)[O-])ccc2c2ccccc12 [Compound 12, 3-Nitro-6H-benzo[c]chromen-6-one]	no detectable fluorescence
CN(C)CCCNc1ccnc2cc([N+](=O)[O-])ccc12 [Compound 15, N^1,N^1-Dimethyl-N^3-(7-nitro-4-quinolinyl)-1,3-propanediamine]	no detectable fluorescence
Cn1ccc(=O)c2cc([N+](=O)[O-])ccc21 [Compound 2, 1-Methyl-6-nitro-4(1H)-quinolinone]	no detectable fluorescence

same assay, conditions: FIG. 12

SMILES	aqueous stability under aerobic or anaerobic conditions compared with 7-nitrocoumarins and 6-chloro-9-nitro-5H-benzo[a]phenoxazin-5-one
COC(=O)CCCNS(=O)(=O)c1cccc2c([N+](=O)[O-])cccc12 [Compound 8, methyl 4-{[(5-nitro-1-naphthyl)sulfonyl]amino}butanoate]	superior aqueous stability
CN(C)CCCCN1C(=O)c2cccc3cc([N+](=O)[O-])cc(c23)C1=O [Compound 11, 2-[4-(Dimethylamino)butyl]-5-nitro-1H-benzo[de]isoquinoline-1,3(2H)-dione]	superior aqueous stability
COC(=O)CCCNS(=O)(=O)c1ccc2c([N+](=O)[O-])cccc2c1 [Compound 9, methyl 4-{[(5-nitro-2-naphthyl)sulfonyl]amino}butanoate]	superior aqueous stability
Cc1cc(=O)c2cc([N+](=O)[O-])ccc2[nH]1 [Compound 3, 2-Methyl-6-nitro-4(1H)-quinolinone]	superior aqueous stability
O=c1oc2cc([N+](=O)[O-])ccc2c2ccccc12 [Compound 12, 3-Nitro-6H-benzo[c]chromen-6-one]	superior aqueous stability
CN(C)CCCNc1ccnc2cc([N+](=O)[O-])ccc12 [Compound 15, N^1,N^1-Dimethyl-N^3-(7-nitro-4-quinolinyl)-1,3-propanediamine]	superior aqueous stability
Cn1ccc(=O)c2cc([N+](=O)[O-])ccc21 [Compound 2, 1-Methyl-6-nitro-4(1H)-quinolinone]	superior aqueous stability

target: T2, NADPH cytochrome P450 reductase (CYPOR) (Homo sapiens, UniProt P16435); experiment: Detecting human nitroreductase activity under anoxia in MDA231 P450R cells; type: cell-based; conditions: MDA231 P450R cells, anoxic (N2), 100 μM, 4 hr
T2 construct: expressed in transfected cells; host or cells: MDA231 (MDA-231) human breast cancer cell line, clonal derivative MDA231 P450R
T2 sequence (P16435 1-677): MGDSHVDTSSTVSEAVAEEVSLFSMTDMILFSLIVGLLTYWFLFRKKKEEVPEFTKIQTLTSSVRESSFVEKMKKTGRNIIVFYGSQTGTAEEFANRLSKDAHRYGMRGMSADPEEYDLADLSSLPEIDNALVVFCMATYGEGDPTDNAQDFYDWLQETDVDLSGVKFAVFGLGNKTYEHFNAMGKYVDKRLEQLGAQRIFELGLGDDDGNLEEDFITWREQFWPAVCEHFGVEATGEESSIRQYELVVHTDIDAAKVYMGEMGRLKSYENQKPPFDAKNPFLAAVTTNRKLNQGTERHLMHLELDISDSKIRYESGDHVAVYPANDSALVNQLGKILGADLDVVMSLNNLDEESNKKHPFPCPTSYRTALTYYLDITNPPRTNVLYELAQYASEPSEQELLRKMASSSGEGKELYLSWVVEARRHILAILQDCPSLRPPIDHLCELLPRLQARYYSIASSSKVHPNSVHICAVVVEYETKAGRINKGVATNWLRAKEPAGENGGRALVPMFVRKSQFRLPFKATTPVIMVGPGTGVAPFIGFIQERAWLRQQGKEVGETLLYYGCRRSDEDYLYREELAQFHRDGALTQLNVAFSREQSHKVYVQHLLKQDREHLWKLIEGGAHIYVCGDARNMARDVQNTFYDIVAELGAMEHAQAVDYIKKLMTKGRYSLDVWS

SMILES	fluorescent signal in the presence of human cytochrome P450 reductase expression when oxygen was absent
CN(C)CCCCN1C(=O)c2cccc3cc([N+](=O)[O-])cc(c23)C1=O [Compound 11, 2-[4-(Dimethylamino)butyl]-5-nitro-1H-benzo[de]isoquinoline-1,3(2H)-dione]	gave rise to a fluorescent signal
Cc1cc(=O)c2cc([N+](=O)[O-])ccc2[nH]1 [Compound 3, 2-Methyl-6-nitro-4(1H)-quinolinone]	gave rise to a fluorescent signal
O=c1oc2cc([N+](=O)[O-])ccc2c2ccccc12 [Compound 12, 3-Nitro-6H-benzo[c]chromen-6-one]	gave rise to a fluorescent signal
CN(C)CCCNc1ccnc2cc([N+](=O)[O-])ccc12 [Compound 15, N^1,N^1-Dimethyl-N^3-(7-nitro-4-quinolinyl)-1,3-propanediamine]	gave rise to a fluorescent signal
Cn1ccc(=O)c2cc([N+](=O)[O-])ccc21 [Compound 2, 1-Methyl-6-nitro-4(1H)-quinolinone]	gave rise to a fluorescent signal

same assay, conditions: normoxic (air), 100 μM, 4 hr

SMILES	fluorescence in control or aerobic MDA231 P450R cultures
COC(=O)CCCNS(=O)(=O)c1cccc2c([N+](=O)[O-])cccc12 [Compound 8, methyl 4-{[(5-nitro-1-naphthyl)sulfonyl]amino}butanoate]	No detectable fluorescence
CN(C)CCCCN1C(=O)c2cccc3cc([N+](=O)[O-])cc(c23)C1=O [Compound 11, 2-[4-(Dimethylamino)butyl]-5-nitro-1H-benzo[de]isoquinoline-1,3(2H)-dione]	No detectable fluorescence
COC(=O)CCCNS(=O)(=O)c1ccc2c([N+](=O)[O-])cccc2c1 [Compound 9, methyl 4-{[(5-nitro-2-naphthyl)sulfonyl]amino}butanoate]	No detectable fluorescence
Cc1cc(=O)c2cc([N+](=O)[O-])ccc2[nH]1 [Compound 3, 2-Methyl-6-nitro-4(1H)-quinolinone]	No detectable fluorescence
O=c1oc2cc([N+](=O)[O-])ccc2c2ccccc12 [Compound 12, 3-Nitro-6H-benzo[c]chromen-6-one]	No detectable fluorescence
CN(C)CCCNc1ccnc2cc([N+](=O)[O-])ccc12 [Compound 15, N^1,N^1-Dimethyl-N^3-(7-nitro-4-quinolinyl)-1,3-propanediamine]	No detectable fluorescence
Cn1ccc(=O)c2cc([N+](=O)[O-])ccc21 [Compound 2, 1-Methyl-6-nitro-4(1H)-quinolinone]	No detectable fluorescence

Reference: patent US20100173332A1, “Method for the Fluorescent Detection of Nitroreductase Activity Using Nitro-Substituted Aromatic Compounds” (Auckland Uniservices Limited, priority 2006, published 2010)
